In PMC7819943, “Rice protein-binding microarrays: a tool to detect cis-acting elements near promoter regions in rice”:
The other results are listed elsewhere or left out.

The chains behind the UniProt entries cited, without tags or fusion partners.
UniProt Q0JBA9, entry or part of it: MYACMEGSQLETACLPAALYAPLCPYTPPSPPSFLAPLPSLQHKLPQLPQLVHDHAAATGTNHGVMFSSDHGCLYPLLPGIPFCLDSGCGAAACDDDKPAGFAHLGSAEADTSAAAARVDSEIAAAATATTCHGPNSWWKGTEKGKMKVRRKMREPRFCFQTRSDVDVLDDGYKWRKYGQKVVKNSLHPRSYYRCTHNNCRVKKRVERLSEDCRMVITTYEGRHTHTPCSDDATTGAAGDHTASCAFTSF

Target: OsWRKY34 (Oryza sativa, UniProt Q0JBA9 1-250)
Assay: protein-binding microarray (RPBM); PBS, 2% BSA, 51.3 ng/ul salmon testes DNA, 50 uM zinc acetate, 200 nM TF, 25 C, 1 h; high values mean tight binding
Details: protein: recombinant; tags: N-terminal polyhistidine and DsRed monomer fusion (pET32a); label: CyDye5-dUTP incorporated in the synthesized complementary strand; 3' TTTTT single-stranded linker to array surface; dsDNA, one strand shown
Outline: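 A custom Agilent array was converted to double-stranded form by primer extension with Cy5-dUTP and blocked with 2% BSA. Protein at 200 nM in PBS with 2% BSA, salmon testes DNA and 50 µM zinc acetate was applied for 1 h at 25 °C, followed by washing. The proteins were polyhistidine–DsRed N-terminal fusions of transcription factors, expressed in E. coli BL21-CodonPlus and Ni–NTA-purified. The binding signal is per-feature fluorescence intensity (arbitrary units) from an Axon 4000B scanner.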

Sequence | binding signal
GACTAGCCCCGAGCATGCTTTCCTAGCCTCCTTCGTCCTTCGGAGTCACCTAGTGCAG | 9000 fluorescence intensity (a.u.)
ATTTGAAAGATCAAATCTTATCATCCTCGTGTTTCTAATTCGGAGTCACCTAGTGCAG | 8100 fluorescence intensity (a.u.)
ACAACCACAGGGCTCACCGGCCAGCAACACGTCGACAACCCGGAGTCACCTAGTGCAG | 8260 fluorescence intensity (a.u.)
CTGCTCCCTATTCGTCCGCGACGGTTCGCCTTCCACTCCGCGGAGTCACCTAGTGCAG | 9030 fluorescence intensity (a.u.)
CCGGCCGACTCTGTCGGTTTCGGTTTCGGGTTGTTTGTTTCGGAGTCACCTAGTGCAG | 9610 fluorescence intensity (a.u.)
CACCGCTCTGCCTGGCTCCGCTTCCGCTGGCCGCCGTCCTCGGAGTCACCTAGTGCAG | 9620 fluorescence intensity (a.u.)
GGTTGTTCCTTGTGTTGGATTTGGTACTCATACTCCTGAACGGAGTCACCTAGTGCAG | 10600 fluorescence intensity (a.u.)
TATATATTTATTGTGCTTTTGTGTATGGGAGGGTGATATGCGGAGTCACCTAGTGCAG | 9840 fluorescence intensity (a.u.)
CTAGACCTAACCTGGAAGCATTTCTCTGTTGTTCCGAAACCGGAGTCACCTAGTGCAG | 10200 fluorescence intensity (a.u.)
TCCTCTCTGTGCCTGTGACCGCGATTTCTGAAATCTGTCCCGGAGTCACCTAGTGCAG | 8690 fluorescence intensity (a.u.)
CATCCCATTTTAGGTGTTTTTTTATACAGTTCCTGTTCCTCGGAGTCACCTAGTGCAG | 8220 fluorescence intensity (a.u.)
TTGTACGCATGATTTTTTTCTGGTTCTTTGATCTTTTAATCGGAGTCACCTAGTGCAG | 9460 fluorescence intensity (a.u.)
CCCGATGGGATTCCGTGTATTAGTTTTTTCTGTTTGTTTGCGGAGTCACCTAGTGCAG | 9230 fluorescence intensity (a.u.)
GTGTCTCTTTACTTTTGACAAATGTGGCTGGAAGTTCAATCGGAGTCACCTAGTGCAG | 8640 fluorescence intensity (a.u.)
GGTCACAGTTTTTTTATGTATATCTCTTCTTTCCAGAAAACGGAGTCACCTAGTGCAG | 9710 fluorescence intensity (a.u.)
GAGCTTGGGGTTGTGTATGGTGGTGGTGGTGTGGTAGCTACGGAGTCACCTAGTGCAG | 33200 fluorescence intensity (a.u.)
TCCGTGTATCTGTCTTGGTATGTACTGCTCTCTCAATACACGGAGTCACCTAGTGCAG | 13700 fluorescence intensity (a.u.)
TATCTGTGTGTTTTGTCCTATGCTTTACATTTCTGGTGGACGGAGTCACCTAGTGCAG | 12300 fluorescence intensity (a.u.)
GTCATGAACTTTCAATGCTTCGTAACCAGTTTTGTCAAATCGGAGTCACCTAGTGCAG | 9170 fluorescence intensity (a.u.)
ACGACACCGAAACCGACTTCCACACCACGCGGGCCCCACACGGAGTCACCTAGTGCAG | 9290 fluorescence intensity (a.u.)
GCGACACAGCGGCGGCGGCGAGATCGTCTGCGTCTTCTTCCGGAGTCACCTAGTGCAG | 8320 fluorescence intensity (a.u.)

Part of the list above in another layout:
Sequence	binding signal
GACTAGCCCCGAGCATGCTTTCCTAGCCTCCTTCGTCCTTCGGAGTCACCTAGTGCAG	9000 fluorescence intensity (a.u.)
ATTTGAAAGATCAAATCTTATCATCCTCGTGTTTCTAATTCGGAGTCACCTAGTGCAG	8100 fluorescence intensity (a.u.)
CCGGCCGACTCTGTCGGTTTCGGTTTCGGGTTGTTTGTTTCGGAGTCACCTAGTGCAG	9610 fluorescence intensity (a.u.)
TATATATTTATTGTGCTTTTGTGTATGGGAGGGTGATATGCGGAGTCACCTAGTGCAG	9840 fluorescence intensity (a.u.)
CTAGACCTAACCTGGAAGCATTTCTCTGTTGTTCCGAAACCGGAGTCACCTAGTGCAG	10200 fluorescence intensity (a.u.)
TCCTCTCTGTGCCTGTGACCGCGATTTCTGAAATCTGTCCCGGAGTCACCTAGTGCAG	8690 fluorescence intensity (a.u.)
CATCCCATTTTAGGTGTTTTTTTATACAGTTCCTGTTCCTCGGAGTCACCTAGTGCAG	8220 fluorescence intensity (a.u.)
TTGTACGCATGATTTTTTTCTGGTTCTTTGATCTTTTAATCGGAGTCACCTAGTGCAG	9460 fluorescence intensity (a.u.)
CCCGATGGGATTCCGTGTATTAGTTTTTTCTGTTTGTTTGCGGAGTCACCTAGTGCAG	9230 fluorescence intensity (a.u.)
GAGCTTGGGGTTGTGTATGGTGGTGGTGGTGTGGTAGCTACGGAGTCACCTAGTGCAG	33200 fluorescence intensity (a.u.)
GCGACACAGCGGCGGCGGCGAGATCGTCTGCGTCTTCTTCCGGAGTCACCTAGTGCAG	8320 fluorescence intensity (a.u.)

Next results.

Sequence | binding signal
ATTGTTTTTTTGAAGCTATGAGTTCTTTTTATCAGCAATTCGGAGTCACCTAGTGCAG | 8980 fluorescence intensity (a.u.)
GAACCACCTTTTATCACTGTGTATTCACAACCTATAAAAACGGAGTCACCTAGTGCAG | 9430 fluorescence intensity (a.u.)
TAGCAACCATTAGCCATGTGTCCTTGATTTTTCTATTATACGGAGTCACCTAGTGCAG | 9380 fluorescence intensity (a.u.)
TATGCAGCTAATTAATAAGTCGATCGCTGCATATCCCTTTCGGAGTCACCTAGTGCAG | 8600 fluorescence intensity (a.u.)
CCATTCCTCTTCTCTCTCTCTCGCTCGCGCTGTACTAACTCGGAGTCACCTAGTGCAG | 9360 fluorescence intensity (a.u.)
AGTCGTTTACTAGTCCATTTCACCATCCCTGGGCCACATCCGGAGTCACCTAGTGCAG | 8900 fluorescence intensity (a.u.)
CGAGCCCAGCAACTCCGCTATTATGCCTACCGTCCCGCGCCGGAGTCACCTAGTGCAG | 8670 fluorescence intensity (a.u.)
GCTCCCATCTGGATGCCGACCCCTGCACACAAGCCATCCTCGGAGTCACCTAGTGCAG | 8140 fluorescence intensity (a.u.)
GCATATTATGTGCTTCCTCGTCAGGCCTCTGTAATGATCACGGAGTCACCTAGTGCAG | 8780 fluorescence intensity (a.u.)
GAACCTTCACGTGCCGCGCGGCCCAGCCATTGCCCGTGCCCGGAGTCACCTAGTGCAG | 9000 fluorescence intensity (a.u.)
ACCAGTCACCACCACTTGTCCGGTCAACTCTCCAGTGACCCGGAGTCACCTAGTGCAG | 9350 fluorescence intensity (a.u.)
TTCGCATGGCCCCGTTTCCTGATTGCTTTTCTATTTTTCCCGGAGTCACCTAGTGCAG | 8440 fluorescence intensity (a.u.)
AGTGTCGTCACACTGCCGTTTTTACACACTCATCATACATCGGAGTCACCTAGTGCAG | 9400 fluorescence intensity (a.u.)
TGTGATGTATTTGATTTATGATGTATTTATTTGTGTGTATCGGAGTCACCTAGTGCAG | 8360 fluorescence intensity (a.u.)
ACTTATCATGTTGCTCTCTCGAGTCGCCGTCGTAGACTGACGGAGTCACCTAGTGCAG | 11200 fluorescence intensity (a.u.)
CGTTTTCTCCGCTCTCTACTCTTCTCTTTCTCCTCTCTCGCGGAGTCACCTAGTGCAG | 12000 fluorescence intensity (a.u.)
TTTTTCAGTGCCTAGGTGGATCCTTGTTATCTCCAGACTACGGAGTCACCTAGTGCAG | 8080 fluorescence intensity (a.u.)
CCGCCTCGTTGGAGGTCTGTGGCGTGGGGTGGTTGATCTCCGGAGTCACCTAGTGCAG | 8140 fluorescence intensity (a.u.)
TGCACACAGGCCCTCACGTGTACACACGTGCACACCAACTCGGAGTCACCTAGTGCAG | 8640 fluorescence intensity (a.u.)
GTCGCCGGCTTCGTCTTCGCCTATGTAGCGTGAGATCCTCCGGAGTCACCTAGTGCAG | 8940 fluorescence intensity (a.u.)
ACTTCACCTGCAGATACATACACCCACAGTTTCTGACTTCCGGAGTCACCTAGTGCAG | 8680 fluorescence intensity (a.u.)
